This assay has as its system B. subtilis. Kind of assay: Sublethal antibiotic concentration determination (growth-rate monitoring). In kind it is cell-based, Bacillus subtilis str. 168. On the procedure:
A sublethal concentration for the antibiotics lincomycin, erythromycin, chloramphenicol, kanamycin, ofloxacin, ampicilin and bacitracin (Sigma) was determined for each of the organisms used in this study as follows. Bacterial cultures were propagated in LB or BHI O.N. in triplicates and diluted 1:200 into fresh media. Cultures were grown to early exponential phase (OD600=0.1-0.2) and then supplemented with serially diluted antibiotics stocks. The growth rate was dynamically monitored in intervals of 10-15 min using a 96 well plate format OD reader (Infinite M200 Tecan) for a period of at least 4 hours. […] To identify antibiotic-responsive regulators, bacteria were grown in LB or BHI in triplicates as described above and, upon reaching early exponential phase, 5 ml cultures were independently exposed for 15 minutes to the sublethal concentration of each antibiotic as determined above. Bacteria were then collected by centrifugation, flash frozen and stored in −80° C. until RNA extraction.

Structures are written as SMILES.

With `O=C(O)c1cn(C2CC2)c2cc(N3CCNCC3)c(F)cc2c1=O` [Ciprofloxacin], under “Table 2”, the “Sublethal concentration (highest antibiotics concentration that did not cause growth-rate inhibition)” value came out at 0.0625 µg/mL. Further, under “Table 6”, the “Sublethal concentrations of antibiotics used in this study” value is 0.0625 µg/mL.

The values above are taken from US20180237774A1, “METHODS OF SCREENING FOR RIBOSWITCHES AND ATTENUATORS” (priority 2015, published 2018).
